The record followed here is article PMC5892894.

No constants are given. Whether binding was seen depends on the method and setting. Binding can be weak; no strength is given. Sequences can lack the tags named with a protein.

Test [1] deals with T1, FlaA2, bacterial two-hybrid fusion (L. biflexa) (UniProt B0SKT5).
T1 sequence: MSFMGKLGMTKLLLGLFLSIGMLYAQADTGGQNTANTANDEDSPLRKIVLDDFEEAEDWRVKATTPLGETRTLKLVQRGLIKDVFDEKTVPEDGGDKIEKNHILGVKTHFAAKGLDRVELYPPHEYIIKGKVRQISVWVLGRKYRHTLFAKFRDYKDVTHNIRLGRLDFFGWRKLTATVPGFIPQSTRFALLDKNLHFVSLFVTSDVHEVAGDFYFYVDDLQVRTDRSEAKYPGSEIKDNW
Nature of the test: two-hybrid; BacterioMatch II bacterial two-hybrid in E. coli XL1-Blue MRF′; bait in pBT, prey in pTRG; growth on M9 medium with 5 mM 3-AT and then 3-AT plus streptomycin.

Test [2] concerns the target FcpA, bacterial two-hybrid fusion (L. biflexa). The test is described as above.

Take “FcpA, bacterial two-hybrid fusion (L. biflexa)”: the binding entry in test [1] is listed as “binds”.

B1: FlaA2, bacterial two-hybrid fusion (protein, UniProt B0SKT5 1-241)
chain: T1 sequence
Turning to B1, in test [2], the binding result is on record as “binds”.

B2: FlaA2 aa155-238 region, bacterial two-hybrid fusion (domain or fragment, UniProt B0SKT5 155-238)
chain: YKDVTHNIRLGRLDFFGWRKLTATVPGFIPQSTRFALLDKNLHFVSLFVTSDVHEVAGDFYFYVDDLQVRTDRSEAKYPGSEIK
In the case of B2, in test [2], the binding result is on record as “binds”.
